Measured values reported in US20020042087A1.
These are yes or no findings as the source states them, for the method shown. Some binding calls cover weakened binding; strength is not graded here.

The chains behind the UniProt entries cited, without tags or fusion partners. Where a name states a change or a piece, a line headed by the entry shows the natural chain unless it says otherwise.
UniProt Q15303: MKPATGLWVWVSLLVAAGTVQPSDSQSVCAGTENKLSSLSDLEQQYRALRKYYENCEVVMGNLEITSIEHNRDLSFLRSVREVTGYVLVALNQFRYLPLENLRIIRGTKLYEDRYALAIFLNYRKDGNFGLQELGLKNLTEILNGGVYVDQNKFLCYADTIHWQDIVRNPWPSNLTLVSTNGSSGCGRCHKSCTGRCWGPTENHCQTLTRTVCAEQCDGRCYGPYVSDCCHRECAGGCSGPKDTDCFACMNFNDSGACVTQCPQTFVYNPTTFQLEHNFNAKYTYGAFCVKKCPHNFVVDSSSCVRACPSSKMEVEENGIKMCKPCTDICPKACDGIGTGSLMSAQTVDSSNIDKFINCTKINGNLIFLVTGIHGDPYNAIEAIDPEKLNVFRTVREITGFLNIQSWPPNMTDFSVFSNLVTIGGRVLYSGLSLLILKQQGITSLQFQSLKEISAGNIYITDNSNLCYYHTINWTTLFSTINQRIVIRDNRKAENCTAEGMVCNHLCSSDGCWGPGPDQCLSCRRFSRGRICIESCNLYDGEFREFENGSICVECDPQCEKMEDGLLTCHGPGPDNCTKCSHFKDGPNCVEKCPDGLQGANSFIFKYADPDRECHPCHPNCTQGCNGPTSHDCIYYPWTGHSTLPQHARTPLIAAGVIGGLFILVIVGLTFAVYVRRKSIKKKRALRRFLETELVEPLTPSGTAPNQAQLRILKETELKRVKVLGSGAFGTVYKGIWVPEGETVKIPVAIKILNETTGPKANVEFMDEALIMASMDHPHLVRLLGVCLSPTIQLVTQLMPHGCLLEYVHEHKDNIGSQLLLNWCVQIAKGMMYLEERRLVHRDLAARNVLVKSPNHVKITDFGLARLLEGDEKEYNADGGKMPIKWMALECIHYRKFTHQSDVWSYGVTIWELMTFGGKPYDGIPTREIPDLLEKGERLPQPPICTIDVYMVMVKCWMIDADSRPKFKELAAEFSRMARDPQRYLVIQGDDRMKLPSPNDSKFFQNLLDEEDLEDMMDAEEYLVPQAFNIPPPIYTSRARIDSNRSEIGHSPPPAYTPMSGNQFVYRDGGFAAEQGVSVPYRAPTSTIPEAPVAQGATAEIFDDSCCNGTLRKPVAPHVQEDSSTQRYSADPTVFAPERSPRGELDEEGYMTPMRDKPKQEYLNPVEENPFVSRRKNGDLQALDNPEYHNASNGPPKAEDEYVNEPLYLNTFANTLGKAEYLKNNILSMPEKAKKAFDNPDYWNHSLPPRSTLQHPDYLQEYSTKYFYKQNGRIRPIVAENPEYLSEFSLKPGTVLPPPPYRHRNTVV

Target: HER2/HER4 IgG heterodimers (human) (UniProt P04626+P01857+Q15303)
Assay: Western (ligand) blot under non reducing conditions, probed with HER2/HER4 IgG heterodimers

binding: binds
B1: γ-HRG, partially purified from conditioned medium of MDA-MB-175 cells (ligand)
chain: MDVKERKPYRSLTRRRDAERRYTSSSADSEEGKAPQKSYSSSETLKAYDQDARLAYGSRVKDIVPQEAEEFCRTGANFTLRELGLEEVTPPHGTLYRTDIGLPHCGYSMGAGSDADMEADTVLSPEHPVRLWGRSTRSGRSSCLSSRANSNLTLTDTEHENTETDHPGGLQNHARLRTPPPPLSHAHTPNQHHAASINSLNRGNFTPRSNPSPAPTDHSLSGEPPAGGAQEPAHAQENWLLNSNIPLETRNLGKQPFLGTLQDNLIEMDILGASRHDGAYSDGHFLFKPGGTSPLFCTTSPGYPLTSSTVYSPPPRPLPRSTFARPAFNLKKPSKYCNWKCAALSAIVISATLVILLAYFVAMHLFGLNWHLQPMEGQMYEITEDTASSWPVPTDVSLYPSGGTGLETPDRKGKGTTEGKPSSFFPEDSFIDSGEIDVGRRASQKIPPGTFWRSQVFIDHPVHLKFNVSLGKAALVGIYGRKGLPPSHTQFDFVELLDGRRLLTQEARSLEGTPRQSRGTVPPSSHETGFIQYLDSGIWHLAFYNDGKESEVVSFLTTAIALPPRLKEMKSQESAAGSKLVLRCETSSEYSSLRFKWFKNGNELNRKNKPQNIKIQKKPGKSELRINKASLADSGEYMCKVISKLGNDSASANITIVESNEIITGMPASTEGAYVSSESPIRISVSTEGANTSSSTSTSTTGTSHLVKCAEKEKTFCVNGGECFMVKDLSNPSRYLCKCPNEFTGDRCQNYVMASFYSTSTPFLSLPE
